Results reported in the supplement of paper PMC8728848.
The list shows a part of the results.

Tests used:
Assay in all cases: glycan array binding signal (z-score within array); higher = stronger binding
Details in all cases: glycan notation: IUPAC condensed, linker removed
[1] = molecular target: Gal(b1-3)GlcNAc(b1-6)[Gal(b1-3)]GalNAc
Procedure, shortened: (§1)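 Glycan array data came from 3228 arrays in the Consortium for Functional Glycomics database, and only arrays with an available protein sequence were kept. Glycan names were put into IUPAC-condensed notation, and columns mapping to the same glycan were averaged. The binding signal is a within-array Z-score, averaged across arrays of one protein sequence run at different concentrations or buffers and across linkers. A negative Z-score can be read as non-binding.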

Gal(b1-3)GlcNAc6S = molecular target: Gal(b1-3)GlcNAc6S
Procedure, shortened: as §1

[2] = molecular target: Gal(b1-3)[Fuc(a1-4)]GlcNAc
Procedure, shortened: as §1

[3] = molecular target: Gal(b1-3)[Fuc(a1-4)]GlcNAc(b1-2)Man
Procedure, shortened: as §1

[4] = molecular target: Gal(b1-3)[Fuc(a1-4)]GlcNAc(b1-2)Man(a1-3)[Gal(b1-3)[Fuc(a1-4)]GlcNAc(b1-2)Man(a1-6)]Man(b1-4)GlcNAc(b1-4)[Fuc(a1-6)]GlcNAc
Procedure, shortened: as §1

[5] = molecular target: Gal(b1-3)[Fuc(a1-4)]GlcNAc(b1-3)Gal(b1-3)[Fuc(a1-4)]GlcNAc
Procedure, shortened: as §1

[6] = molecular target: Gal(b1-3)[Fuc(a1-4)]GlcNAc(b1-3)Gal(b1-4)[Fuc(a1-3)]GlcNAc
Procedure, shortened: as §1

[7] = molecular target: Gal(b1-3)[Fuc(a1-4)]GlcNAc(b1-6)GalNAc
Procedure, shortened: as §1

[8] = molecular target: Gal(b1-3)[GlcNAc(b1-6)]GalNAc
Procedure, shortened: as §1

[9] = molecular target: Gal(b1-3)[Neu5Ac(a2-6)]GalNAc
Procedure, shortened: as §1

[10] = molecular target: Gal(b1-3)[Neu5Ac(a2-6)]GlcNAc(b1-4)Gal(b1-4)Glc
Procedure, shortened: as §1

[11] = molecular target: Gal(b1-3)[Neu5Ac(b2-6)]GalNAc
Procedure, shortened: as §1

Gal(b1-4)Gal = molecular target: Gal(b1-4)Gal
Procedure, shortened: as §1

[12] = molecular target: Gal(b1-4)GalNAc(a1-3)[Fuc(a1-2)]Gal(b1-4)GlcNAc
Procedure, shortened: as §1

[13] = molecular target: Gal(b1-4)GalNAc(b1-3)[Fuc(a1-2)]Gal(b1-4)GlcNAc
Procedure, shortened: as §1

Gal(b1-4)Glc = molecular target: Gal(b1-4)Glc
Procedure, shortened: as §1

Gal(b1-4)Glc6S = molecular target: Gal(b1-4)Glc6S
Procedure, shortened: as §1

Gal(b1-4)GlcNAc = molecular target: Gal(b1-4)GlcNAc
Procedure, shortened: as §1

[14] = molecular target: Gal(b1-4)GlcNAc(a1-6)Gal(b1-4)GlcNAc
Procedure, shortened: as §1

Gal(b1-4)GlcNAc(b1-2)Man = molecular target: Gal(b1-4)GlcNAc(b1-2)Man
Procedure, shortened: as §1

[15] = molecular target: Gal(b1-4)GlcNAc(b1-2)Man(a1-3)Man(b1-4)GlcNAc(b1-4)GlcNAc
Procedure, shortened: as §1

[16] = molecular target: Gal(b1-4)GlcNAc(b1-2)Man(a1-3)[Gal(b1-4)GlcNAc(b1-2)Man(a1-6)]Man(b1-4)GlcNAc(b1-4)GlcNAc
Procedure, shortened: as §1

[17] = molecular target: Gal(b1-4)GlcNAc(b1-2)Man(a1-3)[Gal(b1-4)GlcNAc(b1-2)Man(a1-6)]Man(b1-4)GlcNAc(b1-4)[Fuc(a1-6)]GlcNAc
Procedure, shortened: as §1

[18] = molecular target: Gal(b1-4)GlcNAc(b1-2)Man(a1-3)[Gal(b1-4)GlcNAc(b1-2)Man(a1-6)][Gal(b1-4)GlcNAc(b1-4)]Man(b1-4)GlcNAc(b1-4)[Fuc(a1-6)]GlcNAc
Procedure, shortened: as §1

[19] = molecular target: Gal(b1-4)GlcNAc(b1-2)Man(a1-3)[Gal(b1-4)GlcNAc(b1-2)Man(a1-6)][GlcNAc(b1-4)]Man(b1-4)GlcNAc(b1-4)[Fuc(a1-6)]GlcNAc
Procedure, shortened: as §1

[20] = molecular target: Gal(b1-4)GlcNAc(b1-2)Man(a1-3)[GlcNAc(b1-2)Man(a1-6)]Man(b1-4)GlcNAc(b1-4)GlcNAc
Procedure, shortened: as §1

[21] = molecular target: Gal(b1-4)GlcNAc(b1-2)Man(a1-3)[GlcNAc(b1-4)][Gal(b1-4)GlcNAc(b1-2)Man(a1-6)]Man(b1-4)GlcNAc(b1-4)GlcNAc
Procedure, shortened: as §1

[22] = molecular target: Gal(b1-4)GlcNAc(b1-2)Man(a1-3)[Man(a1-6)]Man(b1-4)GlcNAc(b1-4)GlcNAc
Procedure, shortened: as §1

[23] = molecular target: Gal(b1-4)GlcNAc(b1-2)Man(a1-6)Man(b1-4)GlcNAc(b1-4)GlcNAc
Procedure, shortened: as §1

[24] = molecular target: Gal(b1-4)GlcNAc(b1-2)Man(a1-6)[GlcNAc(b1-2)Man(a1-3)]Man(b1-4)GlcNAc(b1-4)GlcNAc
Procedure, shortened: as §1

[25] = molecular target: Gal(b1-4)GlcNAc(b1-2)Man(a1-6)[Man(a1-3)]Man(b1-4)GlcNAc(b1-4)GlcNAc
Procedure, shortened: as §1

[26] = molecular target: Gal(b1-4)GlcNAc(b1-2)[Gal(b1-4)GlcNAc(b1-4)]Man(a1-3)[Gal(b1-4)GlcNAc(b1-2)Man(a1-6)]Man(b1-4)GlcNAc(b1-4)GlcNAc
Procedure, shortened: as §1

[27] = molecular target: Gal(b1-4)GlcNAc(b1-2)[Gal(b1-4)GlcNAc(b1-4)]Man(a1-3)[Gal(b1-4)GlcNAc(b1-2)[Gal(b1-4)GlcNAc(b1-6)]Man(a1-6)]Man(b1-4)GlcNAc(b1-4)GlcNAc
Procedure, shortened: as §1

[28] = molecular target: Gal(b1-4)GlcNAc(b1-2)[Gal(b1-4)GlcNAc(b1-4)]Man(a1-3)[GlcNAc(b1-4)][Gal(b1-4)GlcNAc(b1-2)Man(a1-6)]Man(b1-4)GlcNAc(b1-4)GlcNAc
Procedure, shortened: as §1

[29] = molecular target: Gal(b1-4)GlcNAc(b1-2)[Gal(b1-4)GlcNAc(b1-4)]Man(a1-3)[GlcNAc(b1-4)][Gal(b1-4)GlcNAc(b1-2)[Gal(b1-4)GlcNAc(b1-6)]Man(a1-6)]Man(b1-4)GlcNAc(b1-4)GlcNAc
Procedure, shortened: as §1

[30] = molecular target: Gal(b1-4)GlcNAc(b1-2)[Gal(b1-4)GlcNAc(b1-6)]Man(a1-6)[Gal(b1-4)GlcNAc(b1-2)Man(a1-3)]Man(b1-4)GlcNAc(b1-4)GlcNAc
Procedure, shortened: as §1

[31] = molecular target: Gal(b1-4)GlcNAc(b1-2)[Gal(b1-4)GlcNAc(b1-6)]Man(a1-6)[Gal(b1-4)GlcNAc(b1-2)Man(a1-3)]Man(b1-4)GlcNAc(b1-4)[Fuc(a1-6)]GlcNAc
Procedure, shortened: as §1

[32] = molecular target: Gal(b1-4)GlcNAc(b1-2)[Gal(b1-4)GlcNAc(b1-6)]Man(a1-6)[GlcNAc(b1-4)][Gal(b1-4)GlcNAc(b1-2)Man(a1-3)]Man(b1-4)GlcNAc(b1-4)GlcNAc
Procedure, shortened: as §1

[33] = molecular target: Gal(b1-4)GlcNAc(b1-2)[Gal(b1-4)GlcNAc(b1-6)]Man(a1-6)[GlcNAc(b1-4)][Gal(b1-4)GlcNAc(b1-2)[Gal(b1-4)GlcNAc(b1-4)]Man(a1-3)]Man(b1-4)GlcNAc(b1-4)[Fuc(a1-6)]GlcNAc
Procedure, shortened: as §1

[34] = molecular target: Gal(b1-4)GlcNAc(b1-3)Gal(b1-3)GalNAc
Procedure, shortened: as §1

[35] = molecular target: Gal(b1-4)GlcNAc(b1-3)Gal(b1-3)GlcNAc
Procedure, shortened: as §1

[36] = molecular target: Gal(b1-4)GlcNAc(b1-3)Gal(b1-4)Glc
Procedure, shortened: as §1

[37] = molecular target: Gal(b1-4)GlcNAc(b1-3)Gal(b1-4)GlcNAc
Procedure, shortened: as §1

[38] = molecular target: Gal(b1-4)GlcNAc(b1-3)Gal(b1-4)GlcNAc(b1-2)Man(a1-3)[Gal(b1-4)GlcNAc(b1-3)Gal(b1-4)GlcNAc(b1-2)Man(a1-6)]Man(b1-4)GlcNAc(b1-4)GlcNAc
Procedure, shortened: as §1

[39] = molecular target: Gal(b1-4)GlcNAc(b1-3)Gal(b1-4)GlcNAc(b1-2)Man(a1-3)[Gal(b1-4)GlcNAc(b1-3)Gal(b1-4)GlcNAc(b1-2)Man(a1-6)]Man(b1-4)GlcNAc(b1-4)[Fuc(a1-6)]GlcNAc
Procedure, shortened: as §1

B1: Clec18Av1 (Homo sapiens), A5D8T8 (protein)
chain: MLHPETSPGRGHLLAVLLALLGTAWAEVWPPQLQEQAPMAGALNRKESFLLLSLHNRLRSWVQPPAADMRRLDWSDSLAQLAQARAALCGTPTPSLASGLWRTLQVGWNMQLLPAGLVSFVEVVSLWFAEGQRYSHAAGECARNATCTHYTQLVWATSSQLGCGRHLCSAGQAAIEAFVCAYSPRGNWEVNGKTIVPYKKGAWCSLCTASVSGCFKAWDHAGGLCEVPRNPCRMSCQNHGRLNISTCHCHCPPGYTGRYCQVRCSLQCVHGRFREEECSCVCDIGYGGAQCATKVHFPFHTCDLRIDGDCFMVSSEADTYYRARMKCQRKGGVLAQIKSQKVQDILAFYLGRLETTNEVIDSDFETRNFWIGLTYKTAKDSFRWATGEHQAFTSFAFGQPDNHGFGNCVELQASAAFNWNDQRCKTRNRYICQFAQEHISRWGPGS
glycan array binding signal (z-score) [1]: 0.084 | glycan array binding signal (z-score) (Gal(b1-3)GlcNAc6S): 1.38 | glycan array binding signal (z-score) [2]: -0.808 | glycan array binding signal (z-score) [3]: -0.248 | glycan array binding signal (z-score) [4]: 0.227 | glycan array binding signal (z-score) [5]: -0.586 | glycan array binding signal (z-score) [6]: -0.826 | glycan array binding signal (z-score) [7]: 1.76 | glycan array binding signal (z-score) [8]: 1.01 | glycan array binding signal (z-score) [9]: 0.774 | glycan array binding signal (z-score) [10]: -0.523 | glycan array binding signal (z-score) [11]: -0.431 | glycan array binding signal (z-score) (Gal(b1-4)Gal): -0.594 | glycan array binding signal (z-score) [12]: -0.265 | glycan array binding signal (z-score) [13]: 0.677 | glycan array binding signal (z-score) (Gal(b1-4)Glc): 0.155 | glycan array binding signal (z-score) (Gal(b1-4)Glc6S): 0.74 | glycan array binding signal (z-score) (Gal(b1-4)GlcNAc): -0.07 | glycan array binding signal (z-score) [14]: -0.735 | glycan array binding signal (z-score) (Gal(b1-4)GlcNAc(b1-2)Man): -0.801 | glycan array binding signal (z-score) [15]: 0.468 | glycan array binding signal (z-score) [16]: -0.218 | glycan array binding signal (z-score) [17]: 0.162 | glycan array binding signal (z-score) [18]: 2.24 | glycan array binding signal (z-score) [19]: 0.712 | glycan array binding signal (z-score) [20]: -0.076 | glycan array binding signal (z-score) [21]: 0.415 | glycan array binding signal (z-score) [22]: 0.244 | glycan array binding signal (z-score) [23]: 1.04 | glycan array binding signal (z-score) [24]: -0.653 | glycan array binding signal (z-score) [25]: -0.454 | glycan array binding signal (z-score) [26]: 0.818 | glycan array binding signal (z-score) [27]: 0.04 | glycan array binding signal (z-score) [28]: 1.9 | glycan array binding signal (z-score) [29]: -0.615 | glycan array binding signal (z-score) [30]: 1.4 | glycan array binding signal (z-score) [31]: 0.533 | glycan array binding signal (z-score) [32]: 3.23 | glycan array binding signal (z-score) [33]: 0.291 | glycan array binding signal (z-score) [34]: 3.37 | glycan array binding signal (z-score) [35]: -0.673 | glycan array binding signal (z-score) [36]: 0.219 | glycan array binding signal (z-score) [37]: 0.493 | glycan array binding signal (z-score) [38]: 0.471 | glycan array binding signal (z-score) [39]: 2.85
